System: canine esophagus tissue
Experiment: Esophageal irritation potential, dog model (esophageal infusion, histopathology)
Assay type: in vivo
Method: The esophageal irritation potential of the bisphosphonates is evaluated using a dog model.
The following solutions are prepared:
(1) simulated gastric juice (pH about 2), i.e. the control solution.
(5) simulated gastric juice (pH about 2) containing about 0.20 mg/mL of risedronate sodium on a risedronic acid active basis.
(6) simulated gastric juice (pH about 2) containing about 4.0 mg/mL of tiludronate disodium on a tiludronic acid active basis.
The simulated gastric juice is prepared by dissolving about 960 mg of pepsin (L-585,228000B003, Fisher Chemical) in about 147 mL of 0.90 (wt %) NaCl (aqueous), adding about 3 mL of 1.0 M HCl (aqueous), and adjusting the volume to about 300 mL with deionized water. The pH of the resulting solution is measured and if necessary is adjusted to about 2 using 1.0 M HCl (aqueous) or 1.0 M NaOH (aqueous).
The animals used in the experiments are anesthetized and administered about 50 mL of the appropriate solution over about 30 minutes by infusion into the esophagus using an infusion pump and a rubber catheter. The following treatment experiments are run:
Group 1: This control group contains four animals. Each animal is administered a dosage of about 50 mL of simulated gastric juice [solution (1)] on each of five consecutive days. […]
Group 2: This group contains four animals. […]
Group 3: This group contains five animals. […] The animals are sacrificed about 24 hours after the dose is administered.
Group 4: This group contains five animals. […] The animals are sacrificed about 7 days after the dose is administered.
Group 5: This group contains six animals. […] The animals are administered a total of four dosages. The animals are sacrificed about 7 days after the last dose is administered.
Group 6: This group contains six animals. […] The animals are administered a total of eight dosages. The animals are sacrificed about four days after the last dose is administered.
Group 7: This group contains eight animals. […]

NCCCC(O)(P(=O)(O)O)P(=O)(O)O [Alendronate, 4-amino-1-hydroxybutylidene-1,1-bisphosphonic acid monosodium trihydrate]
Esophageal irritation versus low concentration dosages on consecutive days (Group 2) (high concentration on a weekly basis (Group 5)): consideraly less esophageal irritation
Esophageal irritation versus low concentration dosages on consecutive days (Group 2) (single high concentration dosage (Groups 3 and 4)): considerably less esophageal irritation (comparable to control Group 1)
Esophageal irritation versus low concentration dosages on consecutive days (Group 2) (twice-weekly basis (Group 6)): consideraly less esophageal irritation

Reference: US6465443B2, “Method for inhibiting bone resorption” (Merck & Co., Inc., priority 1997, dated 2002)
